According to patent publication US20220401514A1, “ANTIMICROBIAL, BACTERIOPHAGE-DERIVED POLYPEPTIDES AND THEIR USE AGAINST GRAM-NEGATIVE AND ACID-FAST BACTERIA” (CONTRAFECT CORPORATION, priority 2019, published 2022):
Some of these results come from one statement about several compounds together. Some ranges recur; such a range may be that of the whole group of compounds.

Assays:
M. smegmatis = test: 45 hr MIC against M. smegmatis (NTM), Mueller Hinton broth; type: cell-based, Mycobacterium smegmatis
Serratia marcescens = test: MIC against Serratia marcescens; type: cell-based; conditions: n=2
Burkholderia cenocepacia = test: MIC against Burkholderia cenocepacia; type: cell-based
[1] = system: carbapenem-resistant P. aeruginosa clinical isolate CFS-1292; test: MIC by modified CLSI broth microdilution against P. aeruginosa CFS-1292 (CAA, CAA + human serum); type: cell-based, Pseudomonas aeruginosa
[2] = system: Pseudomonas aeruginosa, Escherichia coli, Enterobacter cloacae, Klebsiella pneumoniae, and Acinetobacter baumannii; test: MIC against a range of Gram-negative organisms (statements covering several species); type: cell-based; conditions: CAA with physiological salt, no human serum; Table 5 strains
Experimental: Determination of Minimal Inhibitory Concentrations (MIC).
Additional MIC testing was performed for several peptides against the ESKAPE pathogens Escherichia coli, Enterobacter cloacae, Klebsiella pneumoniae, and Acinetobacter baumannii, in CAA supplemented with human serum (Table D).

[3] = system: Achromobacter xylosoxidans; test: MIC against Achromobacter xylosoxidans; type: cell-based; conditions: n=12
[4] = system: P. aeruginosa strain PAO1; test: MIC against PAO1 in Mueller-Hinton broth with 50% human plasma or human serum; type: cell-based, Pseudomonas aeruginosa

For “MAKKIRNKARDRRIFTRTASRMHKANRTPRFMRGGIRL [ALCES1]”, the “45 hr MIC” value (M. smegmatis) was “less than or equal to 1 μg/mL”.
In the case of “MARRRYRLPRRRSRRLFSRTALRMHPRNRLRRIMRGGIRF [Chp6]”, the MIC (Serratia marcescens) is reported as ≤ 4 µg/mL, the MIC (Burkholderia cenocepacia) is reported as ≤ 4 µg/mL and the “MIC (μg/mL) against CFS-1292 in CAA + […] human serum” value (from here on “MIC (μg/mL) against CFS-1292 in CAA +”) [1] is reported as 0.25 to 4 µg/mL. For the same substance, the “MIC against all strains tested” value [2] was 1 to 4 µg/mL.
In the case of “MARSRRRMSKRSSRRSFRKYAKSHKKNFKARSMRGGIRL [Ecp2]”, the MIC (Burkholderia cenocepacia) is reported as ≤ 4 µg/mL and the “MIC against all strains tested” value [2] is reported as 1 to 4 µg/mL.
With “MARSRRRMSKRSSRRSFRKYAKTHKKNFKARSMRGGIRL [Ecp3]” the MIC (Burkholderia cenocepacia) was ≤ 4 µg/mL.
With “MARSRRRMSKRSSRRSFRKYAKTHKRNFKARSMRGGIRL [Ecp1]” the MIC (Burkholderia cenocepacia) was ≤ 4 µg/mL, the “MIC (μg/mL) against CFS-1292 in CAA +” value [1] was 0.25 to 4 µg/mL and the “MIC against all strains tested” value [2] was 1 to 4 µg/mL.
With MAYRGFKTSRVVKHRVRRRWFNHRRRYR [Spi1] the MIC (Burkholderia cenocepacia) was ≤ 4 µg/mL.
“MKRRKLSKKKSRKIFTRGAVNVKKRNLRARPMRGGFRI [Chp10]” was tested, and the “45 hr MIC” value (M. smegmatis) was “less than or equal to 1 μg/mL” and the MIC (Burkholderia cenocepacia) was ≤ 4 µg/mL.
For “MRKRMSKRVDKKVFRRTAASAKKINIDPKIYRGGIRL [Osp1]”, the “MIC (μg/mL) against CFS-1292 in CAA +” value [1] was 0.25 to 4 µg/mL.
For “MRRPRKMNYKKSKRMFSRTAARTHRKNSLRGSRPMRGGIRL [Gkh1]”, the MIC (Burkholderia cenocepacia) was ≤ 4 µg/mL.
For “MRRRRLSRRTSRRFFRKGLKVRRRNLRARPMRGGFRI [Unp2]”, the MIC [3] was ≤ 4 µg/mL and the MIC (Burkholderia cenocepacia) was ≤ 4 µg/mL.
“MSKKRSRMSRRRSKKLFSKTALRTKSVNTRPPMRGGFRF [Chp8]” was tested, and the MIC (Burkholderia cenocepacia) was ≤ 4 µg/mL.
“MSLRRHKLSRKASKRIFRKGASRTKTLNTRATPMRGGFRI [Chp9]” was tested, and the MIC (Burkholderia cenocepacia) was ≤ 4 µg/mL.
“MSSTLCRWAVKALRCTRVYKEFIWKPLVALSYVTLYLLSSVFLSQLSYPIGSWAV [Lvp1]” was tested, and the “MIC (μg/mL) against CFS-1292 in CAA +” value [1] was 0.25 to 4 µg/mL.
In the case of “MVRRRRLRRRISRRIFRRTVARVGRRRRSFRGGIRF [Chp1]”, the MIC (Burkholderia cenocepacia) is reported as ≤ 4 µg/mL.
protegrin [reference compound] gave an MIC [4] of 1 to 4 µg/mL.
